Measurements published in the M2OR odorant receptor database.
The list shows a part of the results, in another mix than the full data. Calls are pooled over several reports, among them a noisy single-well screen. This is one part of the list.

What was measured:
Settings in all cases: stereoisomer not certain
OR5M11 (Homo sapiens) = target: T1, OR5M11 (Homo sapiens) (UniProt Q96RB7)
T1 sequence (whole entry): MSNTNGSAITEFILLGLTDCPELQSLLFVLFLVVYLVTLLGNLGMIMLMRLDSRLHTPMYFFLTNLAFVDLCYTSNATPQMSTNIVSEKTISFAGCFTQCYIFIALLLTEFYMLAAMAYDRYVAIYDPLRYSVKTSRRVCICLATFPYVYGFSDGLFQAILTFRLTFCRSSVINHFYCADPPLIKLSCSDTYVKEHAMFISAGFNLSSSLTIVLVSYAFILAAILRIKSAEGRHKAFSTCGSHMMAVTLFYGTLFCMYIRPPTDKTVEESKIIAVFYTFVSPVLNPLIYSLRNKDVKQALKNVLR
How it was run: (§1)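 Whether a receptor–molecule pair is responsive (active) rests on the original authors' judgment that its measured signal was statistically different from baseline. Pairs without that judgment are non-responsive (inactive). Sources used varied assay methods, commonly transient luciferase assays in mammalian cell lines.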

OR5M1 = test system: T2, OR5M1
T2 sequence (whole entry): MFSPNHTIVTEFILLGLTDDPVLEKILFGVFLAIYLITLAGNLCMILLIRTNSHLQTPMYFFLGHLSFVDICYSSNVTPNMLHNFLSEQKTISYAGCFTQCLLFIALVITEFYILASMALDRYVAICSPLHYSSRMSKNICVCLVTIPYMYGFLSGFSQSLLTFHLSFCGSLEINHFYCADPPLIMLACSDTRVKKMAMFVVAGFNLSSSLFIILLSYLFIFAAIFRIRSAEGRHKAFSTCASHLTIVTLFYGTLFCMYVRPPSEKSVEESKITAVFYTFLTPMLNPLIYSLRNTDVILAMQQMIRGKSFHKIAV
How it was run: as §1

OR5M3 (Homo sapiens) = target: T3, OR5M3 (Homo sapiens) (UniProt Q8NGP4)
T3 sequence (whole entry): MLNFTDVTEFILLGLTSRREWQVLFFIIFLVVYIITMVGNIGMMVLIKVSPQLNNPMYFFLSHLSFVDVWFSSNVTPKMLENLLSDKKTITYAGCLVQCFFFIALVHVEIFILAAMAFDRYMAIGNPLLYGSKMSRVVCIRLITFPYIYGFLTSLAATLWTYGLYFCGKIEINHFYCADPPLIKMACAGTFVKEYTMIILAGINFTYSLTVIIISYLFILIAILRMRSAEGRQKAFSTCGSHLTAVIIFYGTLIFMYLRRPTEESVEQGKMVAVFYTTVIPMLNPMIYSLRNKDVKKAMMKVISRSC
How it was run: as §1

OR5M8 (Homo sapiens) = target: T4, OR5M8 (Homo sapiens) (UniProt Q8NGP6)
T4 sequence (whole entry): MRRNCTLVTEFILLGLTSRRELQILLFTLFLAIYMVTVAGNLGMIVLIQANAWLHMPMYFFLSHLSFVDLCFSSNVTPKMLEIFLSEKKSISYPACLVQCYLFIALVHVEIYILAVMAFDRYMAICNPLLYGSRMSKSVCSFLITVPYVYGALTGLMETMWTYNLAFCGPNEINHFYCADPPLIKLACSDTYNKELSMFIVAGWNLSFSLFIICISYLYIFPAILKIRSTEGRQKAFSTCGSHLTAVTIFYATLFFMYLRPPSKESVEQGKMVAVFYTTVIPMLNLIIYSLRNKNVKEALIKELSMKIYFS
How it was run: as §1

OR5M9 (Homo sapiens) = target: T5, OR5M9 (Homo sapiens) (UniProt Q8NGP3)
T5 sequence (whole entry): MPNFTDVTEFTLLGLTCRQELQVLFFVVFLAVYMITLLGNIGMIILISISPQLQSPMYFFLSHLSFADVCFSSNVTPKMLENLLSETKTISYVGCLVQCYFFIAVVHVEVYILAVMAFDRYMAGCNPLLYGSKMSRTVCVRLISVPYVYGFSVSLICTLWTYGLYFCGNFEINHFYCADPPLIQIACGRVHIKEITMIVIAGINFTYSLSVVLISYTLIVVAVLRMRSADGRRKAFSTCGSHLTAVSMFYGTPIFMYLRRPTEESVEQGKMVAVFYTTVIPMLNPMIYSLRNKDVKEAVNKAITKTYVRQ
How it was run: as §1

OR5MA = test system: T6, OR5MA
T6 sequence (whole entry): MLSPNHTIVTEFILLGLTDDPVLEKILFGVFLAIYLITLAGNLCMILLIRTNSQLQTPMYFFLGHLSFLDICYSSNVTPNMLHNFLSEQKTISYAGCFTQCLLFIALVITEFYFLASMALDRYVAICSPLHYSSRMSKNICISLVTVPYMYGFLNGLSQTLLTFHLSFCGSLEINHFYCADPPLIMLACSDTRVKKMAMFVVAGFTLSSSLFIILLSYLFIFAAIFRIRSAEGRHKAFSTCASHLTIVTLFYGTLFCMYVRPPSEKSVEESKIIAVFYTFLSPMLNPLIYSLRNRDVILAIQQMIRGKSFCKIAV
How it was run: as §1

OR5P2 (Homo sapiens) = target: T7, OR5P2 (Homo sapiens) (UniProt Q8WZ92)
T7 sequence (whole entry): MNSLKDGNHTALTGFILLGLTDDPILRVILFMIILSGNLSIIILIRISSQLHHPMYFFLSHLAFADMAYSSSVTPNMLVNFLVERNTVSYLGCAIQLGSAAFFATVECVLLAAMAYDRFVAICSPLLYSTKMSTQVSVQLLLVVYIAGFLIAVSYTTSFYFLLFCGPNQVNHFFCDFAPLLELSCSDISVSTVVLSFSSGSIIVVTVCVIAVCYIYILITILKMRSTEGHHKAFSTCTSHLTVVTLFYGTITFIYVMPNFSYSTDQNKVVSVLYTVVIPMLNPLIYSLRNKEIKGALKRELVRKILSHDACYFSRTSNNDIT
How it was run: as §1

OR5P3 (Homo sapiens) = target: T8, OR5P3 (Homo sapiens) (UniProt Q8WZ94)
T8 sequence (whole entry): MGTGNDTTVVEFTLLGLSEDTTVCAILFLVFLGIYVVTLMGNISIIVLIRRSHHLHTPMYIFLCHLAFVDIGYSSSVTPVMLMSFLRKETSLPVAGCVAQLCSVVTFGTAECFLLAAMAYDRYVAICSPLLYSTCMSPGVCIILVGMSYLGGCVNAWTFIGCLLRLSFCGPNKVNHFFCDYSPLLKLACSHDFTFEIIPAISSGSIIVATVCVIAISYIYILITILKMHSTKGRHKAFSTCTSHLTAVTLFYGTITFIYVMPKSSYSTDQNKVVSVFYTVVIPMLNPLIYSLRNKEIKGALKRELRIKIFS
How it was run: as §1

OR5R1 = test system: T9, OR5R1
T9 sequence (whole entry): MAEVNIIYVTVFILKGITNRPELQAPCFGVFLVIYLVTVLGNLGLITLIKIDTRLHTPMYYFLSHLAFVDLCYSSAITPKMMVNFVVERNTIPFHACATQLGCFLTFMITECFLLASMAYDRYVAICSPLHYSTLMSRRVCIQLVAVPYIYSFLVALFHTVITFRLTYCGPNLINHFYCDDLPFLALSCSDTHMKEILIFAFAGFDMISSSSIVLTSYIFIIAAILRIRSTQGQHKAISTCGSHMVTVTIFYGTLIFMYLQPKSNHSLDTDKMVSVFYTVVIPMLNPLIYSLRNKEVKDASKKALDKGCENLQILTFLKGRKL
How it was run: as §1
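Note: active if original authors judged signal statistically different from baseline.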

| Compound | odorant receptor agonist call (OR5M11 (Homo sapiens)) | odorant receptor agonist call (OR5M1) | odorant receptor agonist call (OR5M3 (Homo sapiens)) | odorant receptor agonist call (OR5M8 (Homo sapiens)) | odorant receptor agonist call (OR5M9 (Homo sapiens)) | odorant receptor agonist call (OR5MA) | odorant receptor agonist call (OR5P2 (Homo sapiens)) | odorant receptor agonist call (OR5P3 (Homo sapiens)) | odorant receptor agonist call (OR5R1) |
| --- | --- | --- | --- | --- | --- | --- | --- | --- | --- |
| CCCCCC(=O)O | inactive | inactive | inactive | inactive | inactive | inactive | inactive | inactive | inactive |
| CC(C)C=O | inactive | inactive | inactive | inactive | inactive | inactive | inactive | inactive | inactive |
| CC(C)C(=O)O | inactive | inactive | inactive | inactive | inactive | inactive | inactive | inactive | inactive |
| CCCCO | inactive | inactive | inactive | inactive | inactive | inactive | inactive | inactive | inactive |
| CC=Cc1ccc(O)c(OC)c1 | active | active | inactive | inactive | active | active | active | inactive | inactive |
| CC(C)CC(=O)O | inactive | inactive | inactive | inactive | inactive | inactive | inactive | inactive | inactive |
| CCCCCCCCCC=O | inactive | inactive | inactive | inactive | inactive | inactive | inactive | inactive | inactive |
| CCCCCCCCOC(C)=O | inactive | inactive | – | inactive | inactive | inactive | inactive | inactive | inactive |
| CC(=O)OC1CC2CCC1(C)C2(C)C (stereo not drawn) | inactive | inactive | – | inactive | inactive | inactive | inactive | inactive | inactive |
| CCCCCCCC=CC=O | inactive | inactive | inactive | inactive | inactive | inactive | inactive | inactive | inactive |
| COc1ccccc1O | inactive | inactive | inactive | inactive | inactive | inactive | inactive | inactive | inactive |
| C=CCc1ccc(OC)c(OC)c1 | inactive | inactive | inactive | inactive | inactive | active | inactive | active | inactive |
| CC12CCC(C1)C(C)(C)C2=O (stereo not drawn) | inactive | inactive | inactive | inactive | inactive | inactive | inactive | inactive | inactive |
| CC12C=CCC1C1CCC3=CC(=O)CCC3(C)C1CC2 (stereo not drawn) | inactive | inactive | – | inactive | inactive | active | inactive | inactive | inactive |
| CC1=CCC(C(C)(C)O)CC1 (stereo not drawn) | inactive | inactive | inactive | inactive | inactive | inactive | inactive | active | inactive |
| C=CC(C)(O)CCC=C(C)C (stereo not drawn) | inactive | inactive | inactive | inactive | inactive | inactive | inactive | inactive | inactive |
| O=CCc1ccccc1 | active | inactive | inactive | inactive | inactive | inactive | inactive | inactive | inactive |
| CCC=CCCO | inactive | inactive | inactive | inactive | inactive | inactive | inactive | inactive | inactive |
| CC(=O)OCC=C(C)CCC=C(C)C | active | inactive | – | inactive | active | active | inactive | inactive | inactive |
| CCCCCCCC=O | inactive | inactive | inactive | inactive | inactive | inactive | inactive | inactive | inactive |
| COc1cc(C)ccc1O | inactive | inactive | inactive | inactive | inactive | inactive | inactive | inactive | inactive |
| COc1cc(C=O)ccc1O | inactive | inactive | inactive | inactive | inactive | inactive | inactive | inactive | inactive |
| CC12CCC(CC1)C(C)(C)O2 | inactive | inactive | inactive | inactive | inactive | inactive | inactive | inactive | inactive |

Pulled one by one from above:

| Compound | odorant receptor agonist call (OR5M11 (Homo sapiens)) | odorant receptor agonist call (OR5M1) | odorant receptor agonist call (OR5M3 (Homo sapiens)) | odorant receptor agonist call (OR5M8 (Homo sapiens)) | odorant receptor agonist call (OR5M9 (Homo sapiens)) | odorant receptor agonist call (OR5MA) | odorant receptor agonist call (OR5P2 (Homo sapiens)) | odorant receptor agonist call (OR5P3 (Homo sapiens)) | odorant receptor agonist call (OR5R1) |
| --- | --- | --- | --- | --- | --- | --- | --- | --- | --- |
| CC(C)C(=O)O | inactive | inactive | inactive | inactive | inactive | inactive | inactive | inactive | inactive |
| CC12CCC(CC1)C(C)(C)O2 | inactive | inactive | inactive | inactive | inactive | inactive | inactive | inactive | inactive |
